Results published in publication PMC7364817.
These are yes or no findings as the source states them, for the method shown. In cells and extracts the contact can be indirect. Here binding means that the protein was enriched with, or labelled near, the bait; the list need not be complete. Tags and fused reporters may be left off the sequences shown.

T1: FLAG-tagged SMCR8 (Smith-Magenis Syndrome Chromosome Region, Candidate 8) (UniProt Q8TEV9)
T1 sequence: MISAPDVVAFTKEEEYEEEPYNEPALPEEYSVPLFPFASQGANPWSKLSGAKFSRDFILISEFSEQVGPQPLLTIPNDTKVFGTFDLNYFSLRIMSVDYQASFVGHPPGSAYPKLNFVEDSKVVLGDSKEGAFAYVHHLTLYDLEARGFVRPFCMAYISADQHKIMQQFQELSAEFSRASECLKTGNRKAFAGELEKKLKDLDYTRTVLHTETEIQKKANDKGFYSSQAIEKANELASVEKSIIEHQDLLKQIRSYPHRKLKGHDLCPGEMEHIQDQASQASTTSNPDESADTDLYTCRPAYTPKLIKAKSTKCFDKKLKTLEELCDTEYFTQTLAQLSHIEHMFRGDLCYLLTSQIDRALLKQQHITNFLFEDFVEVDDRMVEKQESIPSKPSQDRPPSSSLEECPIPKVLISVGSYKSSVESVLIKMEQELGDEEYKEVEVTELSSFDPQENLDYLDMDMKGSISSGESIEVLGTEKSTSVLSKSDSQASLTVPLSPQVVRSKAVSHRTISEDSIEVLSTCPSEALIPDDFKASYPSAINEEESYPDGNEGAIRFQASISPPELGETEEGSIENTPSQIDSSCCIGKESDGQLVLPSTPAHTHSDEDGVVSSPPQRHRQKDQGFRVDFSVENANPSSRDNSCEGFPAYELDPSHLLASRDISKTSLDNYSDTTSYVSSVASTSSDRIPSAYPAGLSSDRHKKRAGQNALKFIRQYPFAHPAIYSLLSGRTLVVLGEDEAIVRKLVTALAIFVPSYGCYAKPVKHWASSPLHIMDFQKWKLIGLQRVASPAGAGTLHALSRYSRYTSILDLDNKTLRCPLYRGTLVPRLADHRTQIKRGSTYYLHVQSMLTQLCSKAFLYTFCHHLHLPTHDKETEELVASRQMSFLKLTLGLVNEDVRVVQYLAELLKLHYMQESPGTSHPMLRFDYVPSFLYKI

B1: ADNP (protein, UniProt Q9H2P0 1-1102)
chain: MFQLPVNNLGSLRKARKTVKKILSDIGLEYCKEHIEDFKQFEPNDFYLKNTTWEDVGLWDPSLTKNQDYRTKPFCCSACPFSSKFFSAYKSHFRNVHSEDFENRILLNCPYCTFNADKKTLETHIKIFHAPNASAPSSSLSTFKDKNKNDGLKPKQADSVEQAVYYCKKCTYRDPLYEIVRKHIYREHFQHVAAPYIAKAGEKSLNGAVPLGSNAREESSIHCKRCLFMPKSYEALVQHVIEDHERIGYQVTAMIGHTNVVVPRSKPLMLIAPKPQDKKSMGLPPRIGSLASGNVRSLPSQQMVNRLSIPKPNLNSTGVNMMSSVHLQQNNYGVKSVGQGYSVGQSMRLGLGGNAPVSIPQQSQSVKQLLPSGNGRSYGLGSEQRSQAPARYSLQSANASSLSSGQLKSPSLSQSQASRVLGQSSSKPAAAATGPPPGNTSSTQKWKICTICNELFPENVYSVHFEKEHKAEKVPAVANYIMKIHNFTSKCLYCNRYLPTDTLLNHMLIHGLSCPYCRSTFNDVEKMAAHMRMVHIDEEMGPKTDSTLSFDLTLQQGSHTNIHLLVTTYNLRDAPAESVAYHAQNNPPVPPKPQPKVQEKADIPVKSSPQAAVPYKKDVGKTLCPLCFSILKGPISDALAHHLRERHQVIQTVHPVEKKLTYKCIHCLGVYTSNMTASTITLHLVHCRGVGKTQNGQDKTNAPSRLNQSPSLAPVKRTYEQMEFPLLKKRKLDDDSDSPSFFEEKPEEPVVLALDPKGHEDDSYEARKSFLTKYFNKQPYPTRREIEKLAASLWLWKSDIASHFSNKRKKCVRDCEKYKPGVLLGFNMKELNKVKHEMDFDAEWLFENHDEKDSRVNASKTADKKLNLGKEDDSSSDSFENLEEESNESGSPFDPVFEVEPKISNDNPEEHVLKVIPEDASESEEKLDQKEDGSKYETIHLTEEPTKLMHNASDSEVDQDDVVEWKDGASPSESGPGSQQVSDFEDNTCEMKPGTWSDESSQSEDARSSKPAAKKKATMQGDREQLKWKNSSYGKVEGFWSKDQSQWKNASENDERLSNPQIEWQNSTIDSEDGEQFDNMTDGVAEPMHGSLAGVKLSSQQA
B2: AIMP1 (protein, UniProt Q12904 1-312)
chain: MANNDAVLKRLEQKGAEADQIIEYLKQQVSLLKEKAILQATLREEKKLRVENAKLKKEIEELKQELIQAEIQNGVKQIPFPSGTPLHANSMVSENVIQSTAVTTVSSGTKEQIKGGTGDEKKAKEKIEKKGEKKEKKQQSIAGSADSKPIDVSRLDLRIGCIITARKHPDADSLYVEEVDVGEIAPRTVVSGLVNHVPLEQMQNRMVILLCNLKPAKMRGVLSQAMVMCASSPEKIEILAPPNGSVPGDRITFDAFPGEPDKELNPKKKIWEQIQPDLHTNDECVATYKGVPFEVKGKGVCRAQTMSNSGIK
B3: AIMP2 (protein, UniProt Q13155 1-320)
chain: MPMYQVKPYHGGGAPLRVELPTCMYRLPNVHGRSYGPAPGAGHVQEESNLSLQALESRQDDILKRLYELKAAVDGLSKMIQTPDADLDVTNIIQADEPTTLTTNALDLNSVLGKDYGALKDIVINANPASPPLSLLVLHRLLCEHFRVLSTVHTHSSVKSVPENLLKCFGEQNKKQPRQDYQLGFTLIWKNVPKTQMKFSIQTMCPIEGEGNIARFLFSLFGQKHNAVNATLIDSWVDIAIFQLKEGSSKEKAAVFRSMNSALGKSPWLAGNELTVADVVLWSVLQQIGGCSVTVPANVQRWMRSCENLAPFNTALKLLK
B4: ALDH18A1 (protein, UniProt P54886 1-795)
chain: MLSQVYRCGFQPFNQHLLPWVKCTTVFRSHCIQPSVIRHVRSWSNIPFITVPLSRTHGKSFAHRSELKHAKRIVVKLGSAVVTRGDECGLALGRLASIVEQVSVLQNQGREMMLVTSGAVAFGKQRLRHEILLSQSVRQALHSGQNQLKEMAIPVLEARACAAAGQSGLMALYEAMFTQYSICAAQILVTNLDFHDEQKRRNLNGTLHELLRMNIVPIVNTNDAVVPPAEPNSDLQGVNVISVKDNDSLAARLAVEMKTDLLIVLSDVEGLFDSPPGSDDAKLIDIFYPGDQQSVTFGTKSRVGMGGMEAKVKAALWALQGGTSVVIANGTHPKVSGHVITDIVEGKKVGTFFSEVKPAGPTVEQQGEMARSGGRMLATLEPEQRAEIIHHLADLLTDQRDEILLANKKDLEEAEGRLAAPLLKRLSLSTSKLNSLAIGLRQIAASSQDSVGRVLRRTRIAKNLELEQVTVPIGVLLVIFESRPDCLPQVAALAIASGNGLLLKGGKEAAHSNRILHLLTQEALSIHGVKEAVQLVNTREEVEDLCRLDKMIDLIIPRGSSQLVRDIQKAAKGIPVMGHSEGICHMYVDSEASVDKVTRLVRDSKCEYPAACNALETLLIHRDLLRTPLFDQIIDMLRVEQVKIHAGPKFASYLTFSPSEVKSLRTEYGDLELCIEVVDNVQDAIDHIHKYGSSHTDVIVTEDENTAEFFLQHVDSACVFWNASTRFSDGYRFGLGAEVGISTSRIHARGPVGLEGLLTTKWLLRGKDHVVSDFSEHGSLKYLHENLPIPQRNTN
B5: COPB2 (protein, UniProt P35606 1-906)
chain: MPLRLDIKRKLTARSDRVKSVDLHPTEPWMLASLYNGSVCVWNHETQTLVKTFEVCDLPVRAAKFVARKNWVVTGADDMQIRVFNYNTLERVHMFEAHSDYIRCIAVHPTQPFILTSSDDMLIKLWDWDKKWSCSQVFEGHTHYVMQIVINPKDNNQFASASLDRTIKVWQLGSSSPNFTLEGHEKGVNCIDYYSGGDKPYLISGADDRLVKIWDYQNKTCVQTLEGHAQNVSCASFHPELPIIITGSEDGTVRIWHSSTYRLESTLNYGMERVWCVASLRGSNNVALGYDEGSIIVKLGREEPAMSMDANGKIIWAKHSEVQQANLKAMGDAEIKDGERLPLAVKDMGSCEIYPQTIQHNPNGRFVVVCGDGEYIIYTAMALRNKSFGSAQEFAWAHDSSEYAIRESNSIVKIFKNFKEKKSFKPDFGAESIYGGFLLGVRSVNGLAFYDWDNTELIRRIEIQPKHIFWSDSGELVCIATEESFFILKYLSEKVLAAQETHEGVTEDGIEDAFEVLGEIQEIVKTGLWVGDCFIYTSSVNRLNYYVGGEIVTIAHLDRTMYLLGYIPKDNRLYLGDKELNIISYSLLVSVLEYQTAVMRRDFSMADKVLPTIPKEQRTRVAHFLEKQGFKQQALTVSTDPEHRFELALQLGELKIAYQLAVEAESEQKWKQLAELAISKCQFGLAQECLHHAQDYGGLLLLATASGNANMVNKLAEGAERDGKNNVAFMSYFLQGKVDACLELLIRTGRLPEAAFLARTYLPSQVSRVVKLWRENLSKVNQKAAESLADPTEYENLFPGLKEAFVVEEWVKETHADLWPAKQYPLVTPNEERNVMEEGKDFQPSRSTAQQELDGKPASPTPVIVASHTANKEEKSLLELEVDLDNLELEDIDTTDINLDEDILDD
B6: FKBP5 (protein, UniProt Q13451 1-457)
chain: MTTDEGAKNNEESPTATVAEQGEDITSKKDRGVLKIVKRVGNGEETPMIGDKVYVHYKGKLSNGKKFDSSHDRNEPFVFSLGKGQVIKAWDIGVATMKKGEICHLLCKPEYAYGSAGSLPKIPSNATLFFEIELLDFKGEDLFEDGGIIRRTKRKGEGYSNPNEGATVEIHLEGRCGGRMFDCRDVAFTVGEGEDHDIPIGIDKALEKMQREEQCILYLGPRYGFGEAGKPKFGIEPNAELIYEVTLKSFEKAKESWEMDTKEKLEQAAIVKEKGTVYFKGGKYMQAVIQYGKIVSWLEMEYGLSEKESKASESFLLAAFLNLAMCYLKLREYTKAVECCDKALGLDSANEKGLYRRGEAQLLMNEFESAKGDFEKVLEVNPQNKAARLQISMCQKKAKEHNERDRRIYANMFKKFAEQDAKEEANKAMGKKTSEGVTNEKGTDSQAMEEEKPEGHV
B7: HPRT1 (protein, UniProt P00492 1-218)
chain: MATRSPGVVISDDEPGYDLDLFCIPNHYAEDLERVFIPHGLIMDRTERLARDVMKEMGGHHIVALCVLKGGYKFFADLLDYIKALNRNSDRSIPMTVDFIRLKSYCNDQSTGDIKVIGGDDLSTLTGKNVLIVEDIIDTGKTMQTLLSLVRQYNPKMVKVASLLVKRTPRSVGYKPDFVGFEIPDKFVVGYALDYNEYFRDLNHVCVISETGKAKYKA
B8: HSD17B4 (protein, UniProt P51659 1-736)
chain: MGSPLRFDGRVVLVTGAGAGLGRAYALAFAERGALVVVNDLGGDFKGVGKGSLAADKVVEEIRRRGGKAVANYDSVEEGEKVVKTALDAFGRIDVVVNNAGILRDRSFARISDEDWDIIHRVHLRGSFQVTRAAWEHMKKQKYGRIIMTSSASGIYGNFGQANYSAAKLGLLGLANSLAIEGRKSNIHCNTIAPNAGSRMTQTVMPEDLVEALKPEYVAPLVLWLCHESCEENGGLFEVGAGWIGKLRWERTLGAIVRQKNHPMTPEAVKANWKKICDFENASKPQSIQESTGSIIEVLSKIDSEGGVSANHTSRATSTATSGFAGAIGQKLPPFSYAYTELEAIMYALGVGASIKDPKDLKFIYEGSSDFSCLPTFGVIIGQKSMMGGGLAEIPGLSINFAKVLHGEQYLELYKPLPRAGKLKCEAVVADVLDKGSGVVIIMDVYSYSEKELICHNQFSLFLVGSGGFGGKRTSDKVKVAVAIPNRPPDAVLTDTTSLNQAALYRLSGDWNPLHIDPNFASLAGFDKPILHGLCTFGFSARRVLQQFADNDVSRFKAIKARFAKPVYPGQTLQTEMWKEGNRIHFQTKVQETGDIVISNAYVDLAPTSGTSAKTPSEGGKLQSTFVFEEIGRRLKDIGPEVVKKVNAVFEWHITKGGNIGAKWTIDLKSGSGKVYQGPAKGAADTTIILSDEDFMEVVLGKLDPQKAFFSGRLKARGNIMLSQKLQMILKDYAKL

Biological target: T1, FLAG-tagged SMCR8 (Smith-Magenis Syndrome Chromosome Region, Candidate 8)
Test: affinity purification with mass spectrometry; FL-SMCR8, C9orf72-FL or empty vector transfected in HEK 293T; α-FLAG agarose IP from whole cell lysates with or without RNase; LC-MS/MS; hits with three or more spectra and not detected in vector only control

Binder	binding
B1	binds
B2	binds
B3	binds
B4	binds
B5	binds
B6	binds
B7	binds
B8	binds
